Hit rate of the full screen: of about 400,000 compounds, about 13,000 (3.2%) were called active. This list was built around the results that the source calls inconclusive (neither active nor inactive); the mix of calls is not that of the screen. Calls follow the shape of the dose curve; as a rule, active = well fitted cell-killing curve with a large enough effect; inconclusive = small, poorly fitted or top-dose-only effect, or effect the other way; inactive = flat fitted curve, though single readings scatter. Potencies of inconclusive entries are doubtful fits and often do not repeat.
Assay: qHTS assay for MDR1-selective chemotherapeutics: Primary screen using the drug-selected MDR subline cells KB-V1; also: nearly all actives have a fitted effect of over 60% in size
Conditions: KB-V1 MDR cells viability, CellTiter-Glo, 72 h; series mostly up to 46.1 µM
Summary of the method: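 In this primary screen, KB-V1 cells overexpressing P-gp are incubated with library compounds (lowest to highest concentration) for 72 h at 37 degrees C before a luminescent ATP viability read.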
Potency is read from the fitted curve at half-maximal effect.

Which Potency does the source give for `CCOC(=O)C1CCN(c2ccc(-c3cccs3)nn2)CC1` here?
The Potency was inconclusive: 10.3 µM [cytotoxic, partial curve].

Which Potency does the source give for `O=C(Cn1c(=O)n(-c2cccc(Cl)c2)c(=O)c2sc3ccccc3c21)N1CCCC1` here?
Its Potency is “inactive”.

Which Potency does the source give for `CC12CCC(=O)N1C(C(=O)Nc1cccc(S(=O)(=O)N3CCCCC3)c1)CS2` (centres undefined) here?
Its Potency is inconclusive: 25.9 µM [cytotoxic, single point].

Which Potency does the source give for `CCOC(=O)C1=C(C)N(C)C(=S)NC1c1ccccc1` (centres undefined) here?
The Potency was “inactive”.

Which Potency does the source give for `COc1ccc([N+](=O)[O-])cc1COc1cc(C)cc2oc(=O)cc(-c3ccccc3)c12` here?
The Potency was active: 6.51 µM.

For `CCOC(=O)CN1C(=O)C(O)(CC(=O)c2cc(OC)ccc2OC)c2ccccc21` (centres undefined), which Potency is on record?
The Potency was “inactive”.

With `COCCNc1nc(Nc2ccccc2Cl)c2sccc2n1` as the compound, how does the Potency read?
Its Potency is inconclusive: 18.4 µM [cytotoxic, partial curve].

Which Potency does the source give for `O=C(Nc1ccc(N2CCCC2)cc1)c1ccccc1F` here?
Its Potency is inconclusive: 23.1 µM [cytotoxic, single point].

With `CC1C(=O)N(Cc2cn(CCC3OCCCO3)nn2)CCS(=O)(=O)N1Cc1ccc(-c2ccc(Cl)cc2)cc1` (centres undefined) as the compound, how does the Potency read?
The Potency was inconclusive: 29.1 µM [cytotoxic, single point].

With `COCCNC(=O)CSc1nc2ccccc2c(=O)n1CCCC(=O)NCc1ccccc1` as the compound, how does the Potency read?
The Potency was active: 16.4 µM.

With `O=S1(=O)c2ccccc2N(Cc2ccccc2)c2ccccc21` as the compound, how does the Potency read?
Its Potency is “inactive”.

Which Potency does the source give for `COC(=O)c1ccc(COc2ccc(/C=N/Nc3nc(C)cc(=O)[nH]3)cc2)cc1` here?
Its Potency is “inactive”.

Which Potency does the source give for `COc1cc(CNCc2cccnc2)ccc1OCc1ccccc1` here?
The Potency was inconclusive: 8.2 µM [cytotoxic, partial curve].

For `CCOc1ccc2nc(NC(=O)CSc3nnnn3C3CCCCC3)sc2c1`, which Potency is on record?
The Potency was inconclusive: 18.4 µM [cytotoxic, partial curve, poor fit].

With `O=C(CN1CCCc2ccccc21)NC(=O)NC1CCCCC1` as the compound, how does the Potency read?
Its Potency is inconclusive: 8.2 µM [cytotoxic, partial curve].

For `Brc1cccc(OCCSc2ncccn2)c1`, which Potency is on record?
Its Potency is inconclusive: 29.1 µM [cytotoxic, single point].

With `COc1ccc(S(=O)(=O)n2nc(OC(C)=O)cc2N(C(C)=O)C(C)=O)cc1` as the compound, how does the Potency read?
The Potency was inconclusive: 4.11 µM [cytotoxic, full curve].

Which Potency does the source give for `CC1CCC(NC(=O)c2cc(S(=O)(=O)N(C)C)ccc2N2CCCC2)CC1` (centres undefined) here?
Its Potency is inconclusive: 9.2 µM [cytotoxic, partial curve].

For `O[C@H]1C[C@H](c2ccccc2)N(Cc2cccs2)C[C@@H]1n1cc(-c2ccc(F)cc2)nn1`, which Potency is on record?
The Potency was inconclusive: 32.6 µM [cytotoxic, single point].

For `Cn1cc(CNC(=O)CC2C(=O)NCCN2CC(C)(C)C)cn1` (centres undefined), which Potency is on record?
Its Potency is inconclusive: 16.4 µM [rising, single point].

Which Potency does the source give for `O=C(OC1CCCCC1)c1ccc(NC(=O)c2ccco2)cc1` here?
Its Potency is “inactive”.

For `CCOc1ccc2nc(NC(=O)c3ccc(OCC4CCCO4)cc3)sc2c1` (centres undefined), which Potency is on record?
Its Potency is inconclusive: 2.91 µM [cytotoxic, full curve].

For `Nc1cc(=O)n(Cc2ccccc2)c(=O)n1Cc1ccccc1`, which Potency is on record?
Its Potency is active: 18.4 µM.

Which Potency does the source give for `Cc1cc(NC(=O)c2ccno2)no1` here?
Its Potency is inconclusive: 20.6 µM [rising, single point].

Which Potency does the source give for `C#CCCc1cocc1/C=[N+](\[O-])c1ccc(C(=O)OCC)cc1` here?
The Potency was “inactive”.

With `COc1ccc(CNC(=O)C(CC(C)C)NC(=O)c2ccccc2C)cc1` (centres undefined) as the compound, how does the Potency read?
The Potency was inconclusive: 11.6 µM [cytotoxic, partial curve].

Which Potency does the source give for `CC(C)(C)C(=O)N1CCN(c2ccnc3cc(Cl)ccc23)CC1` here?
The Potency was inconclusive: 13 µM [cytotoxic, partial curve].

For `Cc1ccc(SCC(=O)OCC(=O)N(CCC#N)c2ccccc2)cc1C`, which Potency is on record?
Its Potency is “inactive”.

For `CC1CCc2c(sc3[nH]c(=S)n(C)c(=O)c23)C1` (centres undefined), which Potency is on record?
Its Potency is “inactive”.

With `O=C(Cc1ccc(Br)cc1)Nc1cccc(-c2cn3c(n2)SCC3)c1` as the compound, how does the Potency read?
Its Potency is active: 8.2 µM.

Which Potency does the source give for `CCOc1cc(C(=O)CSc2nnc(CNc3ccc(Cl)cc3)o2)ccc1NC(=O)CC` here?
The Potency was active: 20.6 µM.

For `Cc1cc(C)nc(N2CCC(C(=O)NCc3ccco3)CC2)n1`, which Potency is on record?
The Potency was active: 16.4 µM.

For `Cc1cc(Cl)c(OCCOCCN2CCCC(C)C2)c(Br)c1` (centres undefined), which Potency is on record?
Its Potency is inconclusive: 9.2 µM [cytotoxic, partial curve].

For `c1ccc(N2CCN(c3ccccc3)C2c2ccncc2)cc1`, which Potency is on record?
The Potency was inconclusive: 14.6 µM [cytotoxic, partial curve].

With `CCOC(=O)c1ccc(S(=O)(=O)N2CCN(C(=O)c3cccc(S(=O)(=O)N4CC(C)OC(C)C4)c3)CC2)cc1` (centres undefined) as the compound, how does the Potency read?
The Potency was “inactive”.

With `Cc1cc2c(cc(C(=O)NCc3cccnc3)n2Cc2ccc(Cl)cc2)o1` as the compound, how does the Potency read?
The Potency was inconclusive: 20.6 µM [cytotoxic, partial curve, poor fit].

For `CCOC(=O)C1=CNS(=O)(=O)NC1c1ccc(C#N)cc1` (centres undefined), which Potency is on record?
The Potency was inconclusive: 29.1 µM [rising, single point].

Which Potency does the source give for `COc1ccccc1C1CCN(C(=O)c2cccc([N+](=O)[O-])c2)CC1` here?
Its Potency is inconclusive: 13 µM [cytotoxic, partial curve].

For `O=C(/C=C/c1ccc(S(=O)(=O)N2CCOCC2)cc1)NC(=S)Nc1ccc(Cl)cc1Cl`, which Potency is on record?
Its Potency is “inactive”.

For `c1cncc(-c2nn3c(Cn4nnc5ccccc54)nnc3s2)c1`, which Potency is on record?
Its Potency is inconclusive: 18.4 µM [cytotoxic, partial curve].

For `NC(=O)c1sc2nc(-c3ccccc3)ccc2c1N`, which Potency is on record?
The Potency was active: 5.8 µM.

For `Cc1ccccc1-c1cc(C(=O)Nc2nc3c(s2)CCCC3)c2ccccc2n1`, which Potency is on record?
Its Potency is “inactive”.

Which Potency does the source give for `CCOC(=O)[C@]12CCCC=C1N(Cc1ccc(Cl)cc1Cl)C(=O)[C@H](CC(=O)NCCc1ccccc1OC)C2` here?
Its Potency is inconclusive: 29.1 µM [cytotoxic, single point].

For `CCOc1ccc2[nH]c(=O)c(CN(Cc3ccco3)C(CC)c3nnnn3Cc3ccccc3)cc2c1` (centres undefined), which Potency is on record?
The Potency was inconclusive: 20.6 µM [cytotoxic, single point].

Which Potency does the source give for `CC1O[C@@H](OC2C(O)C(C)O[C@H](OC(=O)[C@]34CCC(C)(C)C[C@H]3C3=CCC5[C@@]6(C)CC(O)C(O[C@@H]7OC(CO)C(O)[C@@H](O)[C@@H]7O)[C@@](C)(C(=O)O)C6CC[C@@]5(C)[C@]3(CO)CC4)C2O[C@H]2OC(C)[C@@H](O[C@@H]3OCC(O[C@@H]4OC(CO)C(O)[C@H](O)C4O)[C@@H](O)[C@@H]3O)[C@H](O)C2O)C(O)C(O)C1O` (some centres undefined) here?
Its Potency is inconclusive: 29.1 µM [rising, single point].

Which Potency does the source give for `COc1ccc(C(=O)c2cn(-c3cccc(Br)c3)nc2C(C)=O)cc1` here?
Its Potency is inconclusive: 7.31 µM [cytotoxic, partial curve, poor fit].

For `Cc1ccc(NS(=O)(=O)c2ccc3c(c2)N(C)CCO3)cc1`, which Potency is on record?
The Potency was inconclusive: 23.1 µM [cytotoxic, single point].

For `O=C(NNC(=O)c1cc2ccccc2o1)c1ccc(Cl)cc1`, which Potency is on record?
Its Potency is inconclusive: 14.6 µM [rising, partial curve].

For `O=C(N/N=C/c1ccc(O)cc1)c1cncc(Br)c1`, which Potency is on record?
The Potency was inconclusive: 25.9 µM [rising, single point].

With `COc1ccc(C(c2nnnn2C2CCCCC2)N2CCN(c3ccccc3F)CC2)cc1` (centres undefined) as the compound, how does the Potency read?
The Potency was inconclusive: 5.17 µM [cytotoxic, partial curve].

For `COc1ccc(NC(=O)c2cc(C)nc3ccccc23)cc1S(=O)(=O)Nc1ccccc1Cl`, which Potency is on record?
Its Potency is inconclusive: 3.26 µM [cytotoxic, full curve, poor fit].

For `O=[N+]([O-])c1cc(CN2CCCC2)c2cccnc2c1O`, which Potency is on record?
The Potency was active: 5.8 µM.

With `Cc1cccc(NC(=O)c2oc(=O)c3ccccc3c2-c2ccccc2)c1C` as the compound, how does the Potency read?
Its Potency is active: 10.3 µM.

With `O=C(COc1ccc(F)cc1Cl)N(Cc1nnc(-c2ccccc2Cl)o1)C1CC1` as the compound, how does the Potency read?
The Potency was inconclusive: 7.31 µM [cytotoxic, partial curve].

For `CCCNC(=O)C1CCN(S(=O)(=O)c2ccc(Br)cc2)CC1`, which Potency is on record?
The Potency was active: 16.4 µM.

With `N#Cc1c(N)c(C#N)c(-c2ccc3c(c2)OCO3)c2c1CCCC2` as the compound, how does the Potency read?
The Potency was inconclusive: 5.8 µM [cytotoxic, full curve].

Which Potency does the source give for `COc1cc(/C=N/NC(=O)c2cc(C34CC5CC(CC(C5)C3)C4)[nH]n2)ccc1O` here?
The Potency was “inactive”.

Which Potency does the source give for `CCOc1ccc(Cl)cc1C1=CC(=O)C[C@H](c2ccc(OC)cc2)C1` here?
The Potency was active: 4.61 µM.

With `CCCc1nc2c(nnn2Cc2ccccc2F)c(=O)[nH]1` as the compound, how does the Potency read?
The Potency was inconclusive: 20.6 µM [cytotoxic, single point].

With `Cc1cc(N/N=C/c2ccccc2)nc(NCc2ccccc2)n1` as the compound, how does the Potency read?
Its Potency is active: 13 µM.

For `Cc1ccc(CN(C)C[C@@H]2OCc3cnnn3CCCC(=O)N([C@@H](C)CO)C[C@H]2C)cc1`, which Potency is on record?
The Potency was “inactive”.

With `CN(C(=O)CSc1nc2scc(-c3ccccc3)c2c(=O)[nH]1)c1ccccc1` as the compound, how does the Potency read?
Its Potency is “inactive”.

Which Potency does the source give for `N#CCC(=O)Nc1ccc(C(=O)OCC(=O)Nc2ccccc2-c2ccccc2)cc1` here?
Its Potency is inconclusive: 9.2 µM [rising, partial curve, poor fit].

Which Potency does the source give for `COc1ccc(S(=O)(=O)Nc2ccc(NC(C)=O)cc2)cc1` here?
The Potency was “inactive”.

Which Potency does the source give for `COc1ccc(S(=O)(=O)NC(CC(=O)N2CCc3ccccc32)c2ccco2)cc1` (centres undefined) here?
The Potency was inconclusive: 9.2 µM [cytotoxic, partial curve].

For `O=C(CN1CCN(c2ccc(O)cc2)CC1)Nc1cc([N+](=O)[O-])ccc1Cl`, which Potency is on record?
Its Potency is active: 8.2 µM.

With `COc1ccc(-c2cc3nc(-c4ccc(C)cc4)cc(C(F)(F)F)n3n2)cc1` as the compound, how does the Potency read?
The Potency was inconclusive: 18.4 µM [rising, single point].

Which Potency does the source give for `Cc1nc(NC(=O)CSc2nc3cccnc3n2Cc2ccccc2)sc1C` here?
Its Potency is inconclusive: 0.58 µM [cytotoxic, full curve, poor fit].

With `CCCCn1nnnc1C(c1ccccc1)N1CCN(c2cccc(C)c2C)CC1` (centres undefined) as the compound, how does the Potency read?
The Potency was inconclusive: 20.6 µM [cytotoxic, single point].
